Test results reported in publication PMC7535908, “Dipeptidyl peptidase 3 modulates the renin–angiotensin system in mice” (The Journal of Biological Chemistry, 2020).
These are yes or no findings as the source states them, for the method shown. Some results given as binding are weak or reduced against the parent protein; the word gives no strength.

Chains of the proteins cited; added tags and fusions are not shown. Lines headed by an entry give the natural chain unless they say otherwise; changes in a name come on top.
UniProt P01019: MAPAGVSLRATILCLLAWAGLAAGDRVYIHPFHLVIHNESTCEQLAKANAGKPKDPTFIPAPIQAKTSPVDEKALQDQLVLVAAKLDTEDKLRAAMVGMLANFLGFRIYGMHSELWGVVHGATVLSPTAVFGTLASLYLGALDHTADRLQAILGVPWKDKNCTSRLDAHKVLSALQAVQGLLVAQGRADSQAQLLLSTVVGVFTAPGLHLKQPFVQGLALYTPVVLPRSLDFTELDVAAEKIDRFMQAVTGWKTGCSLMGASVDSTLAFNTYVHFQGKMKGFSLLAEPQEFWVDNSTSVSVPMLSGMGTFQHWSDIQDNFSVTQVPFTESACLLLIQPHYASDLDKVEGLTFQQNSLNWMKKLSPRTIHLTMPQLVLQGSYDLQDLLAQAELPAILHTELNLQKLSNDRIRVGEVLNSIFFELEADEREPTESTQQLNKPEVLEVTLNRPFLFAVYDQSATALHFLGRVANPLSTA

Target: T1, purified recombinant human DPP3 (dipeptidyl peptidase 3) (human) (UniProt Q9NY33)
T1 sequence: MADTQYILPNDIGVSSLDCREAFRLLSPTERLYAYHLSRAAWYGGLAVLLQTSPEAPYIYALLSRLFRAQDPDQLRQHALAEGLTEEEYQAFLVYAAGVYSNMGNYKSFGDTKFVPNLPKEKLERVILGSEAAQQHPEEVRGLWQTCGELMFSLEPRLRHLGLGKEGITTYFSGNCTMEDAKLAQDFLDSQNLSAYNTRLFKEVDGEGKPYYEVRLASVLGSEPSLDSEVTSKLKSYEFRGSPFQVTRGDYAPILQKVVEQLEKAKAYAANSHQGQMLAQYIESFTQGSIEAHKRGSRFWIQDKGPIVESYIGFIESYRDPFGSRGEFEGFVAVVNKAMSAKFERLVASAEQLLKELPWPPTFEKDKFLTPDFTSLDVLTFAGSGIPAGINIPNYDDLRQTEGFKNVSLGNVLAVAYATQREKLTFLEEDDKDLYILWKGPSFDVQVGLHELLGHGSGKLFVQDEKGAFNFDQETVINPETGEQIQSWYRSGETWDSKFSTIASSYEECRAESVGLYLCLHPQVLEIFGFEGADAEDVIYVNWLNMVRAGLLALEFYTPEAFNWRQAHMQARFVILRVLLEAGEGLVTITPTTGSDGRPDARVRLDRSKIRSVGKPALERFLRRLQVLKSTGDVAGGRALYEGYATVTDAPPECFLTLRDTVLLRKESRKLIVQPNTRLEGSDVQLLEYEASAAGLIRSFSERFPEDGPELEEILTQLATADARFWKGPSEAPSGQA
Assay: ITC; single-injection method: 5 µl of 2 mM peptide injected into 200 µl of 20 µM purified hDPP3 in the cell; 50 mM Tris-HCl pH 8.0, 100 mM NaCl; 25 °C; active enzyme, so binding and turnover overlap; both purified

Substance | binding
angiotensin III, Ang III (2–8) (from UniProt P01019 26-32) (peptide) | binds
angiotensin IV, Ang IV (3–8) (from UniProt P01019 27-32) (peptide) | binds
